In article PMC8143632:
These are yes or no findings as the source states them, for the method shown. In cells and extracts the contact can be indirect. A yes stands for co-enrichment or nearness to the bait. Other partners may have been found. For some assays here: No binding means not detected with the bait. Tags and fused reporters may be left off the sequences shown.

The chains behind the UniProt entries cited, without tags or fusion partners.
UniProt O00505: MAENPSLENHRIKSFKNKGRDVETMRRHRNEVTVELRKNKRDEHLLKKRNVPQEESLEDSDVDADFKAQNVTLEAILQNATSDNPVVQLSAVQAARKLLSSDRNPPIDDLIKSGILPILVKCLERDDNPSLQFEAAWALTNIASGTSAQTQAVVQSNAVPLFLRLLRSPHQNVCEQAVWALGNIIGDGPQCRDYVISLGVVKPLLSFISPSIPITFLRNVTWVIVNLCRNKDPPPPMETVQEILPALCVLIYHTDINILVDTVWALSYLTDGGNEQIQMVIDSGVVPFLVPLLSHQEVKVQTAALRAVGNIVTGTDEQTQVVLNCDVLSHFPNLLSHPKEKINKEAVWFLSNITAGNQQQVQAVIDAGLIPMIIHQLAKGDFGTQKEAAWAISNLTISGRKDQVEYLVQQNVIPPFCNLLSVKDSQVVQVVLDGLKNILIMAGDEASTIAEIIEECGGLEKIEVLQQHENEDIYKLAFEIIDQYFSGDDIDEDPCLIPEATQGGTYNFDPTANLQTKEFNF
UniProt Q14974: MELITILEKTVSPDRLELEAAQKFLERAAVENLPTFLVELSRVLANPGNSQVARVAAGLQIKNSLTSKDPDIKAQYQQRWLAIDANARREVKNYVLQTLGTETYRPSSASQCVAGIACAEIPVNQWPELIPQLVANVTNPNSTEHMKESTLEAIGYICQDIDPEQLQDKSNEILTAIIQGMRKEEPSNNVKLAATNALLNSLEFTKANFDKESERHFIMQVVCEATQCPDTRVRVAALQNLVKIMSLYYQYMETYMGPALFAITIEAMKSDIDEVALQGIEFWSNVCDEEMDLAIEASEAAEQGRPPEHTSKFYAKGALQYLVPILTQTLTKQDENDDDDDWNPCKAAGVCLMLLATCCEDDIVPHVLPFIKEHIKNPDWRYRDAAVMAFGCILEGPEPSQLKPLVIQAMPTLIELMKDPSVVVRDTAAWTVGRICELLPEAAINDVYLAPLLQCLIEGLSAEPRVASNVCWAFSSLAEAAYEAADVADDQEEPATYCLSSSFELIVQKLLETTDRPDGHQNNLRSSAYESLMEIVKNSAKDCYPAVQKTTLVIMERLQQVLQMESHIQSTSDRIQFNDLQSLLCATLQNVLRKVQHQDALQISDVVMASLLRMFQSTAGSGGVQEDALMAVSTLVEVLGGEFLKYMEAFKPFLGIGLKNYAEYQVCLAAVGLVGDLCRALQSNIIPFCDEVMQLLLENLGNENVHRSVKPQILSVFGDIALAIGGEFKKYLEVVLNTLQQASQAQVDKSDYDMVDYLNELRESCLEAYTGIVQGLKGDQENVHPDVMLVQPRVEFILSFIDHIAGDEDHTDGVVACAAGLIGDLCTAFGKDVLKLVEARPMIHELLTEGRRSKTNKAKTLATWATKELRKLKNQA
UniProt Q09028: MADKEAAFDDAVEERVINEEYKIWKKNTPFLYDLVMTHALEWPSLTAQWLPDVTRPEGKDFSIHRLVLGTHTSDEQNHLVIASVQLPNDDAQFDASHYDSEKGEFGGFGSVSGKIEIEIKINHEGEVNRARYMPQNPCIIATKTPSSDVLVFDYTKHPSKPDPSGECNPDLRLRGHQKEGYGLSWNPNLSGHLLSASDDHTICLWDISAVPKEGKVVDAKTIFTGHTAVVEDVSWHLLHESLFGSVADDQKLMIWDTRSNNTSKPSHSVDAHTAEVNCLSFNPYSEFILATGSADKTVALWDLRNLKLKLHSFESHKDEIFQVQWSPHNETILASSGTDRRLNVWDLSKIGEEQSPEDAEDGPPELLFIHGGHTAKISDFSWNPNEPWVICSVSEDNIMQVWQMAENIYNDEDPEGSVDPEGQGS
UniProt Q92769: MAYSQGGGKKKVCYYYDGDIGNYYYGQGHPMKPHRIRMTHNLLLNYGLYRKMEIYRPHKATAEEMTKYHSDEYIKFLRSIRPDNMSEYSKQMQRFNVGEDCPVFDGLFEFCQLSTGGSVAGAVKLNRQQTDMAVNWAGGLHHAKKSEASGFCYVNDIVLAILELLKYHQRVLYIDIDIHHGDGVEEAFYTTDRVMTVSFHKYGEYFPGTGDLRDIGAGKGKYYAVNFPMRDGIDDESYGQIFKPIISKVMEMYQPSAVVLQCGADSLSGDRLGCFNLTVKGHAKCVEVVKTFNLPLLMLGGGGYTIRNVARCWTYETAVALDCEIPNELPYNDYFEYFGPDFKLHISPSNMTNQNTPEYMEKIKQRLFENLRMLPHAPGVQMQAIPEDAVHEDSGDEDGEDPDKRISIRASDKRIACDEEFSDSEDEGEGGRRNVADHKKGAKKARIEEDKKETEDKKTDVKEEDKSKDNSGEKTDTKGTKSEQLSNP
UniProt Q13547: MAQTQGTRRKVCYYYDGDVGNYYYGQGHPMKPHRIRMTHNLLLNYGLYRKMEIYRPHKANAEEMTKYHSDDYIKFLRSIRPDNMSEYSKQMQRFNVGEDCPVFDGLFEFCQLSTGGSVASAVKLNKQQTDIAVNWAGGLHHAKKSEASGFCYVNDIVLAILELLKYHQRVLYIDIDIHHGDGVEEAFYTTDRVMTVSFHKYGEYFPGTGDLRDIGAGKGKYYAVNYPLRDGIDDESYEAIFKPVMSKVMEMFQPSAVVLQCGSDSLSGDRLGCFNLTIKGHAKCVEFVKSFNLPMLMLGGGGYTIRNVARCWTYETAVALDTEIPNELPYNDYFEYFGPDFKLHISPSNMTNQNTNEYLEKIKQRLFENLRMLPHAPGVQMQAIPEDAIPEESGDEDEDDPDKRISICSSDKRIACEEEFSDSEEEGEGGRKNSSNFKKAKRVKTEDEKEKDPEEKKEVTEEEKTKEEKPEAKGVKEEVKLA
UniProt O00629: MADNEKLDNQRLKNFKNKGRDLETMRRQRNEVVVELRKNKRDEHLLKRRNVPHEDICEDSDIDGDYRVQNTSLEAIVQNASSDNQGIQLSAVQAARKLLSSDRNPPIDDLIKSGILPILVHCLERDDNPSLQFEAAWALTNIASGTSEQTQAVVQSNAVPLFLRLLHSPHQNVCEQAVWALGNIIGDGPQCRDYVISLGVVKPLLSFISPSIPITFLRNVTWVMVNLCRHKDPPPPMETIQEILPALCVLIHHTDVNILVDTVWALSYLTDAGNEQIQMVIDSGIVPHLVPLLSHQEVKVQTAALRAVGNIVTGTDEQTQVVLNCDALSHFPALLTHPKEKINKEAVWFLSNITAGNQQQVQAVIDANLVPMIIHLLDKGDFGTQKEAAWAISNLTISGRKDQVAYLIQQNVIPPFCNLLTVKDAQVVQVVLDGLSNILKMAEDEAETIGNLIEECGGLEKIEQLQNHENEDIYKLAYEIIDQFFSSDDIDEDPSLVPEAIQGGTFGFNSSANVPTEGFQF
UniProt Q96QT6: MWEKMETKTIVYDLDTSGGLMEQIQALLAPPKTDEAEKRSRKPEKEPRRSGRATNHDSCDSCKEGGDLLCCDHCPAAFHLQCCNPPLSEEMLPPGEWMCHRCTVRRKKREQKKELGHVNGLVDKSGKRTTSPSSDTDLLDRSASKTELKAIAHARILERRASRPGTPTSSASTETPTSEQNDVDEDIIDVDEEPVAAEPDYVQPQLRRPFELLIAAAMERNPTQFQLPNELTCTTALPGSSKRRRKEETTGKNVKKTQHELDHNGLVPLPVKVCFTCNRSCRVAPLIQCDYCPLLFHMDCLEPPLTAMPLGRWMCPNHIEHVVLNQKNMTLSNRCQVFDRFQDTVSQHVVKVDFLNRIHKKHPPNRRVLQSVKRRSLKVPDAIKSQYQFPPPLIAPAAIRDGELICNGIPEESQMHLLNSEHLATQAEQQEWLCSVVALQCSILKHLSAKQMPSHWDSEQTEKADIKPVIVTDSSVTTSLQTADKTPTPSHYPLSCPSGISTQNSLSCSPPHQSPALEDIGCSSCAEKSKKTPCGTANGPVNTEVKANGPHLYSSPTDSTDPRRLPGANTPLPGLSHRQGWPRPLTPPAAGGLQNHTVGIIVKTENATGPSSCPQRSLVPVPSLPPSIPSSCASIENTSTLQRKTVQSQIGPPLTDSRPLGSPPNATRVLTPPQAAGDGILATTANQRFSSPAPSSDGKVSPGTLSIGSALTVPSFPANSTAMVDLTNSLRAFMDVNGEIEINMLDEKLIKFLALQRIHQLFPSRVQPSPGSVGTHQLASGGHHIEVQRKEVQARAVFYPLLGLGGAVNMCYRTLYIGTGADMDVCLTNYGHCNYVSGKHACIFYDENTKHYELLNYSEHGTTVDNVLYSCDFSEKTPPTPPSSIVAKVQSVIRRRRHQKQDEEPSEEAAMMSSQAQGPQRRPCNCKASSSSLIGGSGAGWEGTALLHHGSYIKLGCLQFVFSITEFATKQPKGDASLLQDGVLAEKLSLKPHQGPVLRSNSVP

How the values were obtained:
Test in all cases: affinity purification with mass spectrometry; Halo-tagged bait stably expressed in Flp-In-293 cells; lysate with HL-SAN nuclease 2 U/ml for 2 h at 4 °C; bait captured on Magne HaloTag Beads, eluted with AcTEV Protease; MudPIT; enrichment over cells without transgene by QSPEC (Z-statistic >= 3 and log2 fold change >= 2)
SIN3B_1-HaloTag (human) = biological target: T1, SIN3B_1-HaloTag (human) (UniProt O75182)
T1 sequence: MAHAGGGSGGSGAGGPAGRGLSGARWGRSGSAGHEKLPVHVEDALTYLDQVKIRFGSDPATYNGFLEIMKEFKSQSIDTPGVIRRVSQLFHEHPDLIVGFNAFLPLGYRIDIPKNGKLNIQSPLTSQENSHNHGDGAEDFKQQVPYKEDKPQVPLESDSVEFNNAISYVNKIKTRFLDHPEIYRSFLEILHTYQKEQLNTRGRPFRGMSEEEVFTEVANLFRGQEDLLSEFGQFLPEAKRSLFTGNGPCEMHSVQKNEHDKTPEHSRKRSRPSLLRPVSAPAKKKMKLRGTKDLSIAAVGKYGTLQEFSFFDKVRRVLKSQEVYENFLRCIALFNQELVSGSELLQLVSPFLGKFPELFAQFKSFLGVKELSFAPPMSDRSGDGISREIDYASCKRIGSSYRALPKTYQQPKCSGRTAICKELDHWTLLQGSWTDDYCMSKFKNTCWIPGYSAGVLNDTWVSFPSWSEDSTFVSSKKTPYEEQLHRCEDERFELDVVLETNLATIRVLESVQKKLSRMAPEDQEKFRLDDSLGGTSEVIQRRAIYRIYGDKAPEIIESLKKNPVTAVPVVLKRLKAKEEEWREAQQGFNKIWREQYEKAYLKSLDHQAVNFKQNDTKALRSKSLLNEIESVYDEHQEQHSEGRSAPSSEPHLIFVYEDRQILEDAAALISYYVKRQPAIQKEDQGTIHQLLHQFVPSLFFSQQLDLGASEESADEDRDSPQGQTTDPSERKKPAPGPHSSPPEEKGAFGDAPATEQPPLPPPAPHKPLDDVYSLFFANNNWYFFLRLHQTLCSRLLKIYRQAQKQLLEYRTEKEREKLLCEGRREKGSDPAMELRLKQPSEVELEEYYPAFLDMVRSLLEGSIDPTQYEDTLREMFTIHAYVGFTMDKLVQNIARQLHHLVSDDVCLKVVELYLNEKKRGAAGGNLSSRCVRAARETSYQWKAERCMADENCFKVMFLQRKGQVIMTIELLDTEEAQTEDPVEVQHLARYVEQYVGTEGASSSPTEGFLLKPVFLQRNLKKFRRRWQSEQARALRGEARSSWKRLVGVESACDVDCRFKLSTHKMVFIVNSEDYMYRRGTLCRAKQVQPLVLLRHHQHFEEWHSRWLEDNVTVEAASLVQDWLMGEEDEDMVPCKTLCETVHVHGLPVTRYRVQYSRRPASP

SIN3B_2-HaloTag (human) = biological target: T2, SIN3B_2-HaloTag (human) (UniProt O75182)
T2 sequence: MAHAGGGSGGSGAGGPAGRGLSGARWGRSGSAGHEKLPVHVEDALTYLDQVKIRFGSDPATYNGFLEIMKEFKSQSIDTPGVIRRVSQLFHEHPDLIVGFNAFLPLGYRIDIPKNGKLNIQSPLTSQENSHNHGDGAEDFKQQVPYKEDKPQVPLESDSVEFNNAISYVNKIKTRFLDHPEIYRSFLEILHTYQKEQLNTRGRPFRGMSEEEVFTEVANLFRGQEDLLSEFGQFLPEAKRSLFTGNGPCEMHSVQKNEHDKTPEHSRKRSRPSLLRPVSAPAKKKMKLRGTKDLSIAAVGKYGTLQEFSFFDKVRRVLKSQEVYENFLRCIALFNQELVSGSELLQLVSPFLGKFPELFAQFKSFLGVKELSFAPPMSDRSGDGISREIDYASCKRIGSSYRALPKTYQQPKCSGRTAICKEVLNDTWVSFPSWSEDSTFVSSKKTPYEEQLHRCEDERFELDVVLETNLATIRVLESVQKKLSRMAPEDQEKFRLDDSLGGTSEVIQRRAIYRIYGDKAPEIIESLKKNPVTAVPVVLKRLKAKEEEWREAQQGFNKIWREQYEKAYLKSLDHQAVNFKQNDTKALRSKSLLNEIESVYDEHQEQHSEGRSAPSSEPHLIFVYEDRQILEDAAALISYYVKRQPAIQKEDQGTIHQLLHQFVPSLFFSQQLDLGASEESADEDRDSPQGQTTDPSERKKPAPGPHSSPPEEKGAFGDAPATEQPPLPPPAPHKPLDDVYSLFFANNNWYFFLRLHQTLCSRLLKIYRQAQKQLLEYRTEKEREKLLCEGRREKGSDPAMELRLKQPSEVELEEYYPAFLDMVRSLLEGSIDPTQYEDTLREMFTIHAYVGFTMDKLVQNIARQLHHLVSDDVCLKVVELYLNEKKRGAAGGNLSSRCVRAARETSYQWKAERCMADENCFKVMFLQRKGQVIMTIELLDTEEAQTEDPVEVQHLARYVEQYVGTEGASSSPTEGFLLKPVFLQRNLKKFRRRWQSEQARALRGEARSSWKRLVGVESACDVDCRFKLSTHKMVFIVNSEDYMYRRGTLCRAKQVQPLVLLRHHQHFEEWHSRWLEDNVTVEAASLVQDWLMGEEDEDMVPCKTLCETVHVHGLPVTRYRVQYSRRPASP

SIN3A-HaloTag (human) = biological target: T3, SIN3A-HaloTag (human) (UniProt Q96ST3)
T3 sequence: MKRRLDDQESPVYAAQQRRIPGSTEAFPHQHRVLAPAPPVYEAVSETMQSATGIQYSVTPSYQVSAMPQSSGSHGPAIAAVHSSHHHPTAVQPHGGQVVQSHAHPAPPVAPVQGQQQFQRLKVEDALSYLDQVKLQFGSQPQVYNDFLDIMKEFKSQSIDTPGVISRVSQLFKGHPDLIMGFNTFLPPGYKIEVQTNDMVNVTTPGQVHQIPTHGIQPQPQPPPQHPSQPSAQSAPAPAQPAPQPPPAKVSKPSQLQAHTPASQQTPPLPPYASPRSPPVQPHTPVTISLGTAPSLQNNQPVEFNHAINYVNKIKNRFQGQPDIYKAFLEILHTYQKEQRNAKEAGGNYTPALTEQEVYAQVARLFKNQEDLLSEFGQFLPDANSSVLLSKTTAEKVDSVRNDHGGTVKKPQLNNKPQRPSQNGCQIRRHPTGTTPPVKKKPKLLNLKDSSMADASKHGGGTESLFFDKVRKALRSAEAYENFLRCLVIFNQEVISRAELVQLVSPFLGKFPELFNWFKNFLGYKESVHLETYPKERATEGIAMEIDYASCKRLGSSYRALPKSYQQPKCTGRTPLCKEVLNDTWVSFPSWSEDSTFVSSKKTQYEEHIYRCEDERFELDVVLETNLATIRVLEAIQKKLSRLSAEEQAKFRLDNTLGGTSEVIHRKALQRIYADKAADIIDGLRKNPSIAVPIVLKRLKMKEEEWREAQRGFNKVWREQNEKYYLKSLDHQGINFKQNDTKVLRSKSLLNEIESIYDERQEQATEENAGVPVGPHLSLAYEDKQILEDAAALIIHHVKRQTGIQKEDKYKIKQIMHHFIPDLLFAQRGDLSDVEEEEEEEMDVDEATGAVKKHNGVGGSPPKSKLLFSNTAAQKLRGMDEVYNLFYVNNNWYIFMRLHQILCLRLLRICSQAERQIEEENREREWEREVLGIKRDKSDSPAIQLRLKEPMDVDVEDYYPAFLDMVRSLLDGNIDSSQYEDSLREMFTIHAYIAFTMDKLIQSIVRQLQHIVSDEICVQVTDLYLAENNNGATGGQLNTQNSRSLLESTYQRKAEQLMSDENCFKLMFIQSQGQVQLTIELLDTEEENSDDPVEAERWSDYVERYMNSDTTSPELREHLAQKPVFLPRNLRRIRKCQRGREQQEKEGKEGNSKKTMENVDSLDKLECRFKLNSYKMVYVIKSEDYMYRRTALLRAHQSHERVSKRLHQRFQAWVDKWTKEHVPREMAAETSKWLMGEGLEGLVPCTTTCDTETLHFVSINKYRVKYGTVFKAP

binding (SIN3B_1-HaloTag (human)) | binding (SIN3B_2-HaloTag (human)) | binding (SIN3A-HaloTag (human)) | Substance
binds | binds | no binding | KPNA3 (from UniProt O00505 1-521)
 |  | binds | TNRC18 (from UniProt O15417 1-2968)
binds | binds | no binding | KPNB1 (from UniProt Q14974 1-876)
binds | binds | binds | RBBP4 (from UniProt Q09028 1-425)
binds weakly | binds | binds | HDAC2 (from UniProt Q92769 1-488)
binds weakly | binds | binds | HDAC1 (from UniProt Q13547 1-482)
binds | binds | no binding | KPNA4 (from UniProt O00629 1-521)
 | binds |  | PHF12 (from UniProt Q96QT6 1-1004)
